Reference: PMC6235404
These are yes or no findings as the source states them, for the method shown. In cells and extracts the contact can be indirect. Some entries that bind do so weakly or less than the wild type.

Chains of the proteins cited; added tags and fusions are not shown.
UniProt Q99942: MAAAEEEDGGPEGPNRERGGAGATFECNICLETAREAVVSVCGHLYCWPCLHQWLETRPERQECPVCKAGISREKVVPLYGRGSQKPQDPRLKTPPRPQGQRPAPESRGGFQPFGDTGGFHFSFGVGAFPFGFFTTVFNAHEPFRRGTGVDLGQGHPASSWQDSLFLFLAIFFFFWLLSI
UniProt O35445: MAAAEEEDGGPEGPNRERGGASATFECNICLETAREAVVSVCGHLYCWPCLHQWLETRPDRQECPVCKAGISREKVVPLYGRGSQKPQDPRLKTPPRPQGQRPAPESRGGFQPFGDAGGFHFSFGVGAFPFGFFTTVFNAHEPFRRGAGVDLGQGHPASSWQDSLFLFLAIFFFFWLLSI
UniProt Q86WV6: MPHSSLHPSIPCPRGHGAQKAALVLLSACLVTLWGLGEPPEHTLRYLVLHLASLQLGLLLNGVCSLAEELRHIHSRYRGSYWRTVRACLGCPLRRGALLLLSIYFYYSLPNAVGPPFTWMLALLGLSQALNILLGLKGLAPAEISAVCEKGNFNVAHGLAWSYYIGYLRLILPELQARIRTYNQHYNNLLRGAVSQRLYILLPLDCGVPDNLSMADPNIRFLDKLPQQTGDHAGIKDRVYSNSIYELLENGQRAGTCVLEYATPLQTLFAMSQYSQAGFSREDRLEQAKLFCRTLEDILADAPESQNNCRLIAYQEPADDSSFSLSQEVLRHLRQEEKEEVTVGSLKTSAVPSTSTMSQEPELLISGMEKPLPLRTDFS

Assays:
[1] = target: T1, endogenous STING (mouse cells) (mouse (endogenous in MEFs and BMDMs)) (UniProt Q3TBT3); experiment: co-IP
T1 sequence: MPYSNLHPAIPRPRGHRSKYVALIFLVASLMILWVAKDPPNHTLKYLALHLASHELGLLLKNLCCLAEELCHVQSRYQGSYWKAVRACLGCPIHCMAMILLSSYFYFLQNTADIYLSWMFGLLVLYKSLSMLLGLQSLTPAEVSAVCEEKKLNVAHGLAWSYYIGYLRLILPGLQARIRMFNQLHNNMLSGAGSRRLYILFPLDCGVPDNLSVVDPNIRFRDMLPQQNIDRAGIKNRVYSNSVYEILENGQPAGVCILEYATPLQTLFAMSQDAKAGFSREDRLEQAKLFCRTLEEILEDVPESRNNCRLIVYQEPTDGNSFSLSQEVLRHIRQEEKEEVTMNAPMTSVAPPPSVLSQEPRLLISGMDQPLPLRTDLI

[2] = target: Flag-tagged RNF5 (UniProt Q99942); experiment: co-IP; HEK293T transfected with the indicated plasmids (RNF5, STING, CYLD), 36 h; IP with anti-Flag (S4B Fig)

Row | binding [1] | binding [2] | Substance
1 | binds | – | endogenous RNF5 (MEFs) (from UniProt O35445 1-180) (enzyme)
2 | – | binds | HA-tagged STING (from UniProt Q86WV6 1-379)
